We go through one molecule from publication PMC8818432.

Results are given in words; binding and its absence hold for the method and conditions named. Binding seen in cells or lysates may run through a third protein. Some binding calls cover weakened binding; strength is not graded here.

For this experiment, the target named is T1, Polymerase δ-interacting protein 2 (Poldip2) (human (endogenous in A549 and Beas-2B)) (UniProt Q9Y2S7).
T1 sequence: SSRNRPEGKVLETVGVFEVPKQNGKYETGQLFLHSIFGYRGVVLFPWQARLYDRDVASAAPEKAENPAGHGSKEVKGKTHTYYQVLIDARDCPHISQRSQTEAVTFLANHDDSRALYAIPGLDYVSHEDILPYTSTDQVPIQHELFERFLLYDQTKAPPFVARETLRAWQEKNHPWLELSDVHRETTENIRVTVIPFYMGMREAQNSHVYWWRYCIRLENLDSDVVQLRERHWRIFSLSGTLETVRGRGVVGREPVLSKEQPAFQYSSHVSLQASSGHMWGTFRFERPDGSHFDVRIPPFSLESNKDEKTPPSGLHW
The experiment in a line: co-IP; endogenous proteins; A549 (10 μg/mL LPS) and Beas-2B (1 μg/mL LPS) cells treated for 12 h; lysates incubated overnight at 4°C with 3 μg anti-Poldip2 antibody or normal rabbit IgG and protein G Mag Sepharose; immunoblot for Nox4 and Poldip2. Background: Immunoblotting shows a protein as a band on a membrane.

B1: NADPH oxidase 4 (Nox4) (protein, UniProt Q9NPH5 1-578)
chain: MAVSWRSWLANEGVKHLCLFIWLSMNVLLFWKTFLLYNQGPEYHYLHQMLGLGLCLSRASASVLNLNCSLILLPMCRTLLAYLRGSQKVPSRRTRRLLDKSRTFHITCGVTICIFSGVHVAAHLVNALNFSVNYSEDFVELNAARYRDEDPRKLLFTTVPGLTGVCMVVVLFLMITASTYAIRVSNYDIFWYTHNLFFVFYMLLTLHVSGGLLKYQTNLDTHPPGCISLNRTSSQNISLPEYFSEHFHEPFPEGFSKPAEFTQHKFVKICMEEPRFQANFPQTWLWISGPLCLYCAERLYRYIRSNKPVTIISVMSHPSDVMEIRMVKENFKARPGQYITLHCPSVSALENHPFTLTMCPTETKATFGVHLKIVGDWTERFRDLLLPPSSQDSEILPFIQSRNYPKLYIDGPFGSPFEESLNYEVSLCVAGGIGVTPFASILNTLLDDWKPYKLRRLYFIWVCRDIQSFRWFADLLCMLHNKFWQENRPDYVNIQLYLSQTDGIQKIIGEKYHALNSRLFIGRPRWKLLFDEIAKYNRGKTVGVFCCGPNSLSKTLHKLSNQNNSYGTRFEYNKESFS
With B1, the binding result is recorded as “binds”.
